PubChem BioAssay AID1224830 | NIAID | 2016
The deposit covers about 18,000 reagents; this is an unselected part. Of all reagents, about 2,900 (16%) got an active call. 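Calls are made per well; low scores hint the gene aids the LPS response, high scores that it dampens it.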 Repeated entries: four replicate wells of each siRNA pool.

Purpose: 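Genes whose knock-down alters the TNF-alpha reporter response to LPS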 (primary screen)
Cell system: human THP-1 monocytic leukaemia cells, TNF dual-luciferase reporter clone, PMA-differentiated to macrophage-like cells
Reagents: siRNA pool against human genes, 50 nM
Timing: LPS for 4 h, given about 3 days after siRNA transfection
Conditions: bacterial LPS (TLR4 ligand), 10 ng/ml
Detection: 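Ratio of firefly to renilla light, scaled to the plate median and expressed as a robust z-score per replicate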
Direction: TNF reporter robust z-score: higher = stronger TNF reporter response to LPS
Hit rule: 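a well is active when its z-score exceeds 2.8 or falls below -1.5; control wells carry no call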

What is on record for GASK1B?
TNF reporter robust z-score: 0.65; activity call: inactive

How did the screen score GASK1B?
TNF reporter robust z-score: 1.27; activity call: inactive

What did the screen give for GASK1B?
TNF reporter robust z-score: 3.24; activity call: active

How did the screen score GASK1B?
TNF reporter robust z-score: 1.42; activity call: inactive

With PUS10, what was measured?
TNF reporter robust z-score: 0.17; activity call: inactive

Which result is listed for PUS10?
TNF reporter robust z-score: 0.21; activity call: inactive

Which result is listed for PUS10?
TNF reporter robust z-score: 1.24; activity call: inactive

With PUS10, how do the results read?
TNF reporter robust z-score: 1.81; activity call: inactive

What is on record for CGB3?
TNF reporter robust z-score: 0.45; activity call: inactive

How did the screen score CGB3?
TNF reporter robust z-score: 0.89; activity call: inactive

For CGB3, how do the results read?
TNF reporter robust z-score: 0.4; activity call: inactive

With CGB3, how do the results read?
TNF reporter robust z-score: 0.52; activity call: inactive

Which result is listed for SLC25A33?
TNF reporter robust z-score: 1.13; activity call: inactive

For SLC25A33, what does the deposit list?
TNF reporter robust z-score: 2.8; activity call: active

What did the screen give for SLC25A33?
TNF reporter robust z-score: 0.62; activity call: inactive

What is on record for SLC25A33?
TNF reporter robust z-score: 2.88; activity call: active

Which result is listed for EFNB1?
TNF reporter robust z-score: 0.78; activity call: inactive

For EFNB1, what was measured?
TNF reporter robust z-score: 2.43; activity call: inactive

With EFNB1, how do the results read?
TNF reporter robust z-score: 0.87; activity call: inactive

How did the screen score EFNB1?
TNF reporter robust z-score: 1.55; activity call: inactive

For KLRD1, how do the results read?
TNF reporter robust z-score: -1.16; activity call: inactive

With KLRD1, how do the results read?
TNF reporter robust z-score: 0.91; activity call: inactive

What did the screen give for KLRD1?
TNF reporter robust z-score: 0.58; activity call: inactive

With KLRD1, how do the results read?
TNF reporter robust z-score: 1.4; activity call: inactive

For ACTBL2, how do the results read?
TNF reporter robust z-score: -0.02; activity call: inactive

What did the screen give for ACTBL2?
TNF reporter robust z-score: -0.31; activity call: inactive

Which result is listed for ACTBL2?
TNF reporter robust z-score: -0.56; activity call: inactive

For ACTBL2, what does the deposit list?
TNF reporter robust z-score: -0.81; activity call: inactive

Records listed above with an active call:
GASK1B → TNF reporter robust z-score = 3.24; activity call = active
SLC25A33 → TNF reporter robust z-score = 2.8; activity call = active
SLC25A33 → TNF reporter robust z-score = 2.88; activity call = active

The list goes on.
What is on record for LMBRD1?
TNF reporter robust z-score: 0.83; activity call: inactive

What is on record for LMBRD1?
TNF reporter robust z-score: 0.39; activity call: inactive

For LMBRD1, what does the deposit list?
TNF reporter robust z-score: 1.52; activity call: inactive

What is on record for LMBRD1?
TNF reporter robust z-score: 0.37; activity call: inactive

Which result is listed for SLC17A5?
TNF reporter robust z-score: 0.22; activity call: inactive

With SLC17A5, how do the results read?
TNF reporter robust z-score: 0.65; activity call: inactive

What did the screen give for SLC17A5?
TNF reporter robust z-score: 0.02; activity call: inactive

How did the screen score SLC17A5?
TNF reporter robust z-score: 1.48; activity call: inactive

With TRIM6, what does the deposit list?
TNF reporter robust z-score: 0.08; activity call: inactive

For TRIM6, what was measured?
TNF reporter robust z-score: -0.67; activity call: inactive

For TRIM6, what does the deposit list?
TNF reporter robust z-score: -0.43; activity call: inactive

With TRIM6, what was measured?
TNF reporter robust z-score: 0; activity call: inactive

With PEX3, what does the deposit list?
TNF reporter robust z-score: -0.57; activity call: inactive

For PEX3, how do the results read?
TNF reporter robust z-score: -0.78; activity call: inactive

With PEX3, what does the deposit list?
TNF reporter robust z-score: -0.82; activity call: inactive

For PEX3, what was measured?
TNF reporter robust z-score: -0.15; activity call: inactive

With NOL9, what was measured?
TNF reporter robust z-score: 0.48; activity call: inactive

What is on record for NOL9?
TNF reporter robust z-score: -0.33; activity call: inactive

With NOL9, what does the deposit list?
TNF reporter robust z-score: 0.17; activity call: inactive

How did the screen score NOL9?
TNF reporter robust z-score: 0.44; activity call: inactive

With TGM4, what does the deposit list?
TNF reporter robust z-score: 0.49; activity call: inactive

For TGM4, what does the deposit list?
TNF reporter robust z-score: 0.82; activity call: inactive

What did the screen give for TGM4?
TNF reporter robust z-score: 0.43; activity call: inactive

Which result is listed for TGM4?
TNF reporter robust z-score: 0.04; activity call: inactive

How did the screen score FAM9C?
TNF reporter robust z-score: -0.68; activity call: inactive

For FAM9C, what does the deposit list?
TNF reporter robust z-score: -0.39; activity call: inactive

How did the screen score FAM9C?
TNF reporter robust z-score: -0.61; activity call: inactive

With FAM9C, what was measured?
TNF reporter robust z-score: -0.29; activity call: inactive

How did the screen score ZNF773?
TNF reporter robust z-score: 0.01; activity call: inactive

With ZNF773, what was measured?
TNF reporter robust z-score: 0.29; activity call: inactive

Which result is listed for ZNF773?
TNF reporter robust z-score: 1.14; activity call: inactive

What did the screen give for ZNF773?
TNF reporter robust z-score: -0.56; activity call: inactive
